The other results are listed elsewhere or left out.
tested on: T1, CTL2-GFP (C. trachomatis L2/434/Bu, GFP-expressing); design: species or system HeLa; Intracellular C. trachomatis growth in HeLa cells, bulk GFP fluorescence relative to DMSO; conditions: bulk GFP, single well; 28.5 h, 10 µM; inhibitor
T1 construct: L2/434/Bu, GFP-expressing

Row | Compound | % of control remaining [%]
1 | O=C(O)c1ccc(OC(=O)C2CCCC2)cc1 [CBK090156] | 115.688
2 | CSCCC(=O)N1CCC2(CCN(C(=O)c3cc(F)c(F)cc3F)C2)C1 (centres unmarked) [CBK131397] | 109.253
3 | Cc1cc(C)[n+]2c(n1)N(c1ccccc1)CC2 [CBK017327G] | 126.087
4 | O=C(Cn1c(NCCO)nc2ccccc21)C12CC3CC(CC(C3)C1)C2 [CBK262129B] | 100
5 | Cc1cccc(NC(=O)CSCc2ccc(Cl)s2)n1 [CBK297895] | 112.431
6 | COc1ccc(-c2nc(NC(=O)c3ccco3)cnc2-c2cccc(C)c2)cn1 [CBK036954] | 125.942
7 | CCOc1ccccc1C(=O)N1CCCCC1c1ncc(C(=O)Nc2ccccc2)c(C)n1 (centres unmarked) [CBK285840] | 118.253
8 | CCCCNC(=O)CCCN(CC)CCC1=CC2(CCCC2)c2ccccc21 [CBK013232] | 148.042
9 | C[C@H](NC(=O)N1CCC2(CC1)NCCc1c2[nH]c2ccc(Cl)cc12)c1ccccc1 [CBK047046] | 68.9274
10 | O=C(NCc1csc(-c2ccccc2)n1)c1ccccc1OC(F)F [CBK092332] | 113.114
11 | Nc1nnc(SCc2ccc(Br)cc2)s1 [CBK026356] | 121.624
12 | Cc1ccn(CCNC(=O)c2ccc3c(C)c(C)[nH]c3c2)n1 [CBK282519] | 175.242
13 | O=C(Nc1ncc(Cc2ccc(F)cc2)s1)c1ccc(-c2ccc(F)cc2)o1 [CBK300522] | 117.468
14 | Cc1sc2nc(SCC(=O)Nc3ccc(S(N)(=O)=O)cc3)n(-c3ccccc3)c(=O)c2c1C [CBK266600] | 114.269
15 | CN(CCc1ccccn1)Cc1cc(Br)cs1 [CBK021314] | 133.959
16 | FCCOc1cncc(Cl)n1 [CBK113553] | 104.329
17 | COc1cc(C)c(NC(=O)C(=S)NCc2ccco2)cc1C [CBK268582] | 135.029
18 | COc1cc(-c2cn3ccnc3c(N[C@@H]3CCN(Cc4ccccc4)C3)n2)cc(OC)c1OC [CBK037385] | 139.436
19 | N#Cc1ccccc1-c1ccc(CSc2cccs2)cc1 [CBK002638] | 95.5815
20 | COc1cccc(N2CC(C(=O)Nc3cccc(C(=O)O)c3)CC2=O)c1 (centres unmarked) [CBK286612] | 136.148
21 | c1nc(OCCN2CCOCC2)cc(N2CCCN(CCN3CCOCC3)CC2)n1 [CBK083647] | 133.239
22 | COc1c(C)cc(-c2nc(C)nc(C)c2C)cc1C [CBK307506] | 129.001
23 | O=C(O)CCC(=O)N1N=C2C(=Cc3cccc([N+](=O)[O-])c3)CCCC2C1c1cccc([N+](=O)[O-])c1 (centres unmarked) [CBK296071] | 96.0527
24 | CCCCOc1ccc(C(=O)N/C(=C/c2ccco2)C(=O)Nc2cccc(C(=O)O)c2)cc1 [CBK300491] | 141.746
25 | CC(=O)NCCSc1ncccc1C(F)(F)F [CBK105296] | 131.283
26 | O=C(NCCN1CCCCC1)C1CC(=O)N(CCc2ccccc2)C1 (centres unmarked) [CBK305986] | 87.0591
27 | O=C(COc1ccc(F)cc1F)NNC(=S)NC1CCCCC1 [CBK266859] | 116.733

Row | Compound | % of control remaining [%]
28 | Clc1ccccc1-c1nccnc1NCCc1c[nH]c2ccccc12 [CBK037337] | 98.5784
29 | COC(=O)c1ccc(N2C(=O)CC(N3CCC(n4c(=O)[nH]c5ccccc54)CC3)C2=O)cc1 (centres unmarked) [CBK268714] | 137.757
30 | COc1ccccc1N1CCN(C(=O)N(CCN)CCC(C)c2ccccc2)CC1 (centres unmarked) [CBK002137C] | 127.581
31 | CNC(=O)C1(Cc2cccc(-c3cccs3)c2)CCN(C(=O)c2ccccc2)CC1 [CBK285720] | 113.386
32 | Cc1ncccc1-c1cc2cccnc2n1CCCNC(=O)C1CC1C (centres unmarked) [CBK282688] | 118.001
33 | Cc1ccc2[nH]c(-c3cccc(NC(=O)c4ccc(-n5cnnc5)cc4)c3)nc2c1 [CBK285839] | 115.656
34 | Cc1ccc(Nc2nc(N)nc(-c3cc4ccccc4o3)n2)cc1 [CBK288222] | 83.8358
35 | O=C1CC[C@@H](NCc2cccnc2)[C@H](c2cc(F)cc(F)c2)N1 [CBK283130] | 133.715
36 | O=C(O)c1ccccc1C(=O)N1CCC2(CC1)OCCc1c2[nH]c2ccccc12 [CBK046981] | 110.323
37 | CCCCC(=O)N(C)c1c(C)nc2ccc(C(=O)NCc3cccs3)cn12 [CBK147073] | 109.992
38 | O=C(O)C(Nc1nc(C(F)(F)F)nc2ccccc12)c1ccccc1 (centres unmarked) [CBK269570] | 76.251
39 | Cc1[nH]n(-c2nc3ccccc3o2)c(=O)c1Cc1c(Cl)cccc1Cl [CBK085382] | 62.6591
40 | COC(=O)c1sccc1NS(=O)(=O)c1cc(F)c(Br)cc1F [CBK004492] | 100.606
41 | Nc1nc2ccccc2n1CCOc1ccc(Cl)cc1 [CBK087352] | 156.325
42 | O=C(COc1ccc(S(=O)(=O)N2CCCCC2)cc1)NCc1cccnc1 [CBK268328] | 144.762
43 | Cc1c(Cl)cccc1NC(=O)C(=O)NCCCN1CCOCC1 [CBK263276] | 91.2014
44 | S=C(NCc1ccc(Cl)c(Cl)c1)Nc1ccncc1 [CBK016649] | 124.579
45 | NC(CSC12CC3CC(CC(C3)C1)C2)C(=O)O (centres unmarked) [CBK287219] | 115.749
46 | Cc1cc(C)n(-c2cc(C)c3ccccc3n2)n1 [CBK262358] | 148.41
47 | c1ccc2c(c1)CCCN2Cc1nc2ccccc2[nH]1 [CBK138329] | 135.034
48 | Cc1ccc(S(N)(=O)=O)cc1CNC(=O)Nc1cccc(F)c1 [CBK093516] | 132.829
49 | COCCNC(=O)c1cc(C2CN(CCc3ccccc3)CCO2)nc2ccccc12 (centres unmarked) [CBK285622] | 119.19
50 | O=C(COC(=O)c1cc(-c2ccco2)nc2ccccc12)Nc1ccc(F)c(F)c1F [CBK296115] | 122.701
51 | CCOC(=O)CC(=O)Nc1c(Br)cc(Br)cc1C(=O)O [CBK261412] | 89.1358
52 | O=C(CN1CCN(c2cc(-c3ccc4ccccc4c3)ncn2)CC1)N1CCCC1 [CBK091064] | 198.691
53 | O=C1NCCCNC(=O)C2(C/C=C/CCOc3ccccc31)CCN(C(=O)CN1CCCC1)CC2 [CBK292052] | 120.845
54 | CC(=O)Nc1ccc(/C(C)=N/NC(=O)c2ccc(CN3CCOCC3)cc2)cc1 [CBK262720] | 127.692

Row | Compound | % of control remaining [%]
55 | c1ccc(Sc2cccc3ccccc23)nc1 [CBK085856] | 89.9348
56 | O=c1[nH]nc2c(S(=O)(=O)N3CCCCC3)cccn12 [CBK288450] | 122.431
57 | CCC1=NN(c2ccccc2)C(=O)C(CC(=O)Nc2ccccc2)c2cc(OC)c(OC)cc21 (centres unmarked) [CBK260938] | 100
58 | Cc1ccc(OCC(=O)Nc2ccc(N3CCN(Cc4ccccc4)CC3)cc2)cc1C [CBK266085] | 116.756
59 | Cc1cnc(CNC(=O)C2(c3ccccc3)CCCC2)cn1 [CBK149531] | 164.293
60 | NS(=O)(=O)c1ccc(NC(=O)c2cccnc2)cc1 [CBK264488] | 138.57
61 | Cc1ccc(CCC(=O)N2CCCCC2c2nc3ccccc3[nH]2)o1 (centres unmarked) [CBK282316] | 74.8648
62 | Cc1nn(C)c(Cl)c1CN1CCOC(c2ccccc2)C1 (centres unmarked) [CBK305244] | 125.452
63 | COc1ccc([C@]23CN(C)C[C@H]2CCN(C(=O)c2ccc4c(c2)OC(F)(F)O4)C3)cc1OC [CBK075110T] | 118.79
64 | O=C(O)C1Cc2ccccc2C(=O)N1CCc1ccccc1 (centres unmarked) [CBK286592] | 129.179
65 | CC(=O)Nc1ccc(C(=O)NCc2ccc(S(N)(=O)=O)cc2)cc1 [CBK263642] | 120.462
66 | c1ccc(N2CCN(Cc3cncn3C3CCCCC3)CC2)nc1 [CBK307345] | 127.269
67 | COc1cc(CNCc2cnn(C)c2)c(O)c(C(C)(C)C)c1 [CBK304721] | 122.125
68 | C=CCn1c(SCC(=O)Nc2cccc(F)c2)nnc1-c1ccccc1O [CBK269620] | 134.089
69 | COC(=O)c1cccc(CN2CCC3(CC2)NC(=O)Cc2ccccc23)c1 [CBK039807] | 124.111
70 | COc1ccc(C(=O)Nc2nc3c(C)cccc3s2)c(OC)c1 [CBK287301] | 137.187
71 | CN1Cc2ccccc2OC2(CCCN(C(=O)C3CC3)CC2)C1 (centres unmarked) [CBK285131] | 71.344
72 | O=S(=O)(N1CCCCC1)N1CCN(CC(O)COc2ccc3cc(Br)ccc3c2)CC1 (centres unmarked) [CBK269032] | 124.48
73 | CCC(NC(=O)Nc1cc(N2CCOCC2)ccc1Cl)c1nccs1 (centres unmarked) [CBK306519] | 161.413
74 | COc1cc(F)ccc1-c1nc(N)cc2cccnc12 [CBK081176] | 107.252
75 | COc1cc(Nc2cccc(-c3ccco3)n2)cc(OC)c1OC [CBK037724] | 191.154
76 | CSCCN1CCCN(c2nccc(OCc3ccc(Cl)c(Cl)c3)n2)CC1 [CBK083960] | 89.979
77 | Cc1cc2cn([C@@H]3O[C@H](CO)[C@H](O)C3O)c(=O)nc2[nH]1 (some centres unmarked) [CBK201219] | 110.341
78 | Cc1ccc2nc(-c3ccccc3)c(C)c(C(=O)O)c2c1 [CBK270268] | 135.645
79 | CCN(CC)C(=O)N1CCC(c2ccncc2)CC1 [CBK283503] | 108.83
80 | O=C(CSc1nnc(Cc2cccs2)n1-c1ccccc1)c1c[nH]c2ccccc12 [CBK268290] | 151.261

Source: PMC12040169 (PLOS Biology, 2025)
